In patent US20040002441A1, “Recombination modulators and methods for producing and using the same” (priority 2000, published 2004):
Some results were stated once for a whole list of compounds, not compound by compound. Where no end group is shown, it is not given here.

What was measured:
[1] = target: T1, Vaccinia topoisomerase (type Ib) (Vaccinia virus, UniProt P68698); assay type: biochemical
T1 construct: made in house; host or cells: Escherichia coli BL21 infected with bacteriophage λCE6

[2] = target: T2, E. coli topoisomerase I (type Ia) (Escherichia coli, UniProt P06612); assay type: biochemical
T2 sequence (P06612 1-865): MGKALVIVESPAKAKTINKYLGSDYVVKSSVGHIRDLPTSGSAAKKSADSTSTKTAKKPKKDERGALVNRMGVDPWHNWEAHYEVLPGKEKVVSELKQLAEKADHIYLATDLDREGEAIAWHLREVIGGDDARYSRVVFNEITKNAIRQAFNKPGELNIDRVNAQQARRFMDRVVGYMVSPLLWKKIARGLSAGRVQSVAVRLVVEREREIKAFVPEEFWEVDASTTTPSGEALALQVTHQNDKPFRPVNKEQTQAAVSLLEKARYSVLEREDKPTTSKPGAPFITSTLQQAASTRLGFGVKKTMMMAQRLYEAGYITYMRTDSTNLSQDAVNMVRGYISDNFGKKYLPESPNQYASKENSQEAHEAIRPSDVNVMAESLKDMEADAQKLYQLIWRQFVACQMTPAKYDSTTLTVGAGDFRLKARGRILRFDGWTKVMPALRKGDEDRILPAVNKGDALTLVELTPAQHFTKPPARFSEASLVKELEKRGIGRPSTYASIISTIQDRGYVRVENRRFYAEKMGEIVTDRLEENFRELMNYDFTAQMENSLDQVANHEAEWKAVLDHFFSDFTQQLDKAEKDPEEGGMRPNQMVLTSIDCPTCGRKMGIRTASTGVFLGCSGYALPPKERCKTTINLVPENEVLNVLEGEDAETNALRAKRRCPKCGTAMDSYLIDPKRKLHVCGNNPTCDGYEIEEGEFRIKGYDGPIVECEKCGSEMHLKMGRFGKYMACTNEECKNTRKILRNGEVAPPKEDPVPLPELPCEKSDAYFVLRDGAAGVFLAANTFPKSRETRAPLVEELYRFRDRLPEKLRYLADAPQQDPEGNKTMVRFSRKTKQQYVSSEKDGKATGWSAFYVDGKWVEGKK
Description: E. coli topoisomerase I (TopA) exemplifies the type IA topoisomerase family. Type IA enzymes are mechanistically and structurally unrelated to the topoisomerase IB/tyrosine recombinase superfamily of DNA strand transferases.

Row | Substance | peptide concentration at which DNA relaxation activity was abolished [1] [µM] | peptide concentration at which DNA relaxation activity was abolished [2] [µM]
1 | KWWCRW-NH2 [Peptide 59, KWWCRW] | 10 to 15 | 15 to 42
2 | KWWWRW-NH2 [Peptide 56, KWWWRW] | 10 to 15 | 15 to 42
